# Source: patent US20110034427A1, “Anti-aging properties of quercetin, 18alpha-glycyrrhetinic acid and hederagenin and their derivatives” (priority 2009, published 2011)
# Some entries share one result that the patent states for a list of compounds.
# Test system: HFL-1 HDFs
# Assay: Cellular survival with or without oxidative stress
# Type: cell-based, human
# Conditions: 300 μM H2O2 for 2.5 h, then additional 24 h in culture
# Method: 6.1. HFL-1 HDFs were cultured as described in 5.1. Following the incubation with the various substances cells were collected and counted using a Coulter Z2® counter (Coulter Corporation). In replica cultures, culture medium supplemented with the substances as described above were also supplemented with 300 μM H2O2 for 2.5 h. The cells were then thoroughly washed with PBS, supplemented with complete medium containing the examined substances and maintained in culture for additional 24 h. They were then collected and counted using a Coulter Z2® counter (Coulter Corporation).
substance,measurement,value
Quercetin caprylate,higher survival rate after oxidative stress as compared to control cultures,≤ 14.5%
